The text below walks through data of paper PMC9243173.

Chains of the proteins cited; added tags and fusions are not shown. Lines headed by an entry give the natural chain unless they say otherwise; changes in a name come on top.
UniProt Q9H6Q4: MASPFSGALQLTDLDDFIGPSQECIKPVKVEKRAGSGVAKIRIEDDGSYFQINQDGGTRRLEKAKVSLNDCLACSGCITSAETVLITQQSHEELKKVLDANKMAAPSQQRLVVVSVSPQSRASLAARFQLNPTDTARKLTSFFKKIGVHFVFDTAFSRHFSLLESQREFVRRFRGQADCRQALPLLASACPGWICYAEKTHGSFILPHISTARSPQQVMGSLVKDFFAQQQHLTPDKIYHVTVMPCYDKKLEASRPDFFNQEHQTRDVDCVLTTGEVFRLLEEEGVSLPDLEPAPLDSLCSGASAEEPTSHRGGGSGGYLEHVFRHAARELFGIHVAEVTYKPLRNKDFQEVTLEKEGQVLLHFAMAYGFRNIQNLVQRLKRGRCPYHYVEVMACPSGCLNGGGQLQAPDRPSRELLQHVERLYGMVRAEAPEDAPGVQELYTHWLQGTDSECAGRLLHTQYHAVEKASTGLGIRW

This assay addresses 3HA-3FLAG-CIAO3-S161I (human) (UniProt Q9H6Q4). The assay can be described thus: co-IP; anti-HA beads on whole cell extracts of Flp-In 293 cells expressing the 3HA-3FLAG-tagged bait (NUBP2, CIAO3 wildtype or S161I, ERCC2 wildtype or mutant); 100 mM Tris-HCl pH 8.0, 150 mM NaCl, 5% glycerol, 0.1% NP-40, 4 °C; immunoblot of endogenous partners; cells untreated or treated with FAC, DFO (3 or 8 h), tBHP (4 h), 1% O2 (16 h), nontarget siRNA or 1% formaldehyde. In general terms: In western blotting, separated proteins are transferred to a membrane and probed.

Results are given in words; binding and its absence hold for the method and conditions named. In cells and extracts the contact can be indirect. Some results given as binding are weak or reduced against the parent protein; the word gives no strength.

Turning to “ERCC2, endogenous (from UniProt P18074 1-760)”, the binding entry is recorded as “binds”.
